Experimental data from the supplement of paper PMC5949888.
Most values lie at the floor of the assay. Slopes are relative: functional sequences can read slightly below zero.

system: Saccharomyces cerevisiae PS128 hsf1 delta, HSF1(1-493) fusion; experiment: growth estimate (transactivation domain function in HSF1 fusion, heat-shock survival) (a.u. (slope of normalised read count over time)); higher = stronger growth at 37°C, i.e. more transactivation activity; details: library: random library

Substance	growth estimate
KRSDSMFHRHAIFHPKRTRV	< -0.25
KRSDSRPSNPE	< -0.25
KRSLAVGSTIFRGLRTKKLD	< -0.25
KRSRKDVFGWNTC	< -0.25
KRTLMGKRGFKAASELGHLG	< -0.25
KRTMRTGTSEVWWVWLSATG	< -0.25
KRTVRSPHARADHWM	< -0.25
KRYALLEPDRYWILHGNITS	< -0.25
KRYLKHRRC	< -0.25
KSEWVVLEPWSD	< -0.25
KSFTRRTTI	< -0.25
KSGRLK	< -0.25
KSGT	< -0.25
KSHG	< -0.25
KSIAKPTFIKAMGCLVPSRE	< -0.25
KSK	< -0.25
KSKDAG	< -0.25
KSKDSHK	< -0.25
KSLWPLTAGW	< -0.25
KSNPRHLSSSRNWYAIPF	< -0.25
KSRLLVGGRPFGRSLRQSLG	< -0.25
KSRMAVPVEGF	< -0.25
KSRW	< -0.25
KSSR	< -0.25
KSTPGVLVEGGLTMVRAYGG	< -0.25

Substance	growth estimate
KSVGQEAGALLLRTGSHGPI	< -0.25
KSVLRLGDGH	< -0.25
KSWNWVVWS	< -0.25
KTACRTRGLGVRLEAAGSLQ	< -0.25
KTAIGVEDGTLRYGENWSRT	< -0.25
KTCNGLSVVVCPVLAVRCSQ	< -0.25
KTDGQVTNKLAALVQLWC	< -0.25
KTFAVPRFLGLWGILG	< -0.25
KTGDFRQVMETQVV	< -0.25
KTGPPEYVY	< -0.25
KTGRETYCEVISPILRCSAK	< -0.25
KTKGEPPLREDAVRSPQKWA	< -0.25
KTMFGHECPGQPLLRGRHGY	< -0.25
KTMQRGQSGILGPARR	< -0.25
KTQRDGLQLESVQ	< -0.25
KTRANHLM	< -0.25
KTSSPVPAVDG	< -0.25
KTSVCTVSICRRAVLVVTYA	< -0.25
KTVRRGHRKEVTQSHTET	< -0.25
KTWQNRMPYFQCNLDQFLYT	< -0.25
KTWVRTVDSMNY	< -0.25
KTYQE	< -0.25
KVAGTLDP	< -0.25
KVCTLLRSLVTERVDL	< -0.25
KVDK	< -0.25

Fetched one by one from the list above (4):
Substance	growth estimate
KVDK	< -0.25
KTWVRTVDSMNY	< -0.25
KSVLRLGDGH	< -0.25
KTDGQVTNKLAALVQLWC	< -0.25

Remaining list, next part:

Substance	growth estimate
KVELDTGSLTITDGHAVTAE	< -0.25
KVGATWSRQS	< -0.25
KVGMISVLRR	< -0.25
KVGSCKSRAFD	< -0.25
KVLFPTT	< -0.25
KVLGR	< -0.25
KVNGLGYPRGCRCLGDKRRQ	< -0.25
KVRVRLPSPRGMAPSEARSS	< -0.25
KVSFLEKGFVRSRTGGI	< -0.25
KVSMERKNGLLGVIEGNTDQ	< -0.25
KVSNYLNVARNRG	< -0.25
KVTANAR	< -0.25
KVVLSHQRNKYYLPF	< -0.25
KVYILRLLIYDHAAEGGRST	< -0.25
KVYMVAARVRARR	< -0.25
KWGRPIYNRGKRPDRLRLAL	< -0.25
KWREARAEDDDRRV	< -0.25
KWSFGICNVKSR	< -0.25
KWSRVILPTRSGEYGAVTLP	< -0.25
KWWSTRSKRLIGKVVPLTSP	< -0.25
KYG	< -0.25
KYGYLRTSSSLVDTYLRGNG	< -0.25
KYIIMSQLAKYEK	< -0.25
KYKIPPLSASISDSMR	< -0.25
KYLYKGNSTRVRVTSCQRTR	-0.0469

Substance	growth estimate
KYMGF	-0.243
KYRLSGVEVIRTASAHCPLR	-0.207
KYRPTVRASRPL	< -0.25
KYRRWCPLFSLLTDNLN	< -0.25
KYRSRAAGTRQKAYQRQASA	< -0.25
LACCYSSFLCQSTR	< -0.25
LACQGSQ	< -0.25
LAD	< -0.25
LADLMNVKACAPGE	< -0.25
LADWHSPAGRLALCTGHSVS	< -0.25
LAEGLRRALLTTGSRSDLAC	< -0.25
LAERMV	< -0.25
LAEVSTRNSGAHGSSACLHE	< -0.25
LAG	< -0.25
LAGQVILPRRTEQQYSRSPW	-0.248
LAGSQRSTISSPSIPYI	< -0.25
LAGSSRRQT	< -0.25
LAGYELIKYG	< -0.25
LAHIRGLRGGALLSFNWRML	< -0.25
LAILEVAFPTARNVAEFRVA	< -0.25
LAKGGRCYCVGPSWLETCST	< -0.25
LAKVGLGHLYIGYRCVERPA	< -0.25
LAKYGAGSQGIHPSL	< -0.25
LALGADLAGIF	-0.245
LALGVCRVRLEANSVLQP	< -0.25
